Source: paper PMC3454344
These are yes or no findings as the source states them, for the method shown. Binding seen in cells or lysates may run through a third protein. Some entries that bind do so weakly or less than the wild type.

By UniProt entry, the sequences of proteins in these tests, tags left out.
UniProt B2RWS6: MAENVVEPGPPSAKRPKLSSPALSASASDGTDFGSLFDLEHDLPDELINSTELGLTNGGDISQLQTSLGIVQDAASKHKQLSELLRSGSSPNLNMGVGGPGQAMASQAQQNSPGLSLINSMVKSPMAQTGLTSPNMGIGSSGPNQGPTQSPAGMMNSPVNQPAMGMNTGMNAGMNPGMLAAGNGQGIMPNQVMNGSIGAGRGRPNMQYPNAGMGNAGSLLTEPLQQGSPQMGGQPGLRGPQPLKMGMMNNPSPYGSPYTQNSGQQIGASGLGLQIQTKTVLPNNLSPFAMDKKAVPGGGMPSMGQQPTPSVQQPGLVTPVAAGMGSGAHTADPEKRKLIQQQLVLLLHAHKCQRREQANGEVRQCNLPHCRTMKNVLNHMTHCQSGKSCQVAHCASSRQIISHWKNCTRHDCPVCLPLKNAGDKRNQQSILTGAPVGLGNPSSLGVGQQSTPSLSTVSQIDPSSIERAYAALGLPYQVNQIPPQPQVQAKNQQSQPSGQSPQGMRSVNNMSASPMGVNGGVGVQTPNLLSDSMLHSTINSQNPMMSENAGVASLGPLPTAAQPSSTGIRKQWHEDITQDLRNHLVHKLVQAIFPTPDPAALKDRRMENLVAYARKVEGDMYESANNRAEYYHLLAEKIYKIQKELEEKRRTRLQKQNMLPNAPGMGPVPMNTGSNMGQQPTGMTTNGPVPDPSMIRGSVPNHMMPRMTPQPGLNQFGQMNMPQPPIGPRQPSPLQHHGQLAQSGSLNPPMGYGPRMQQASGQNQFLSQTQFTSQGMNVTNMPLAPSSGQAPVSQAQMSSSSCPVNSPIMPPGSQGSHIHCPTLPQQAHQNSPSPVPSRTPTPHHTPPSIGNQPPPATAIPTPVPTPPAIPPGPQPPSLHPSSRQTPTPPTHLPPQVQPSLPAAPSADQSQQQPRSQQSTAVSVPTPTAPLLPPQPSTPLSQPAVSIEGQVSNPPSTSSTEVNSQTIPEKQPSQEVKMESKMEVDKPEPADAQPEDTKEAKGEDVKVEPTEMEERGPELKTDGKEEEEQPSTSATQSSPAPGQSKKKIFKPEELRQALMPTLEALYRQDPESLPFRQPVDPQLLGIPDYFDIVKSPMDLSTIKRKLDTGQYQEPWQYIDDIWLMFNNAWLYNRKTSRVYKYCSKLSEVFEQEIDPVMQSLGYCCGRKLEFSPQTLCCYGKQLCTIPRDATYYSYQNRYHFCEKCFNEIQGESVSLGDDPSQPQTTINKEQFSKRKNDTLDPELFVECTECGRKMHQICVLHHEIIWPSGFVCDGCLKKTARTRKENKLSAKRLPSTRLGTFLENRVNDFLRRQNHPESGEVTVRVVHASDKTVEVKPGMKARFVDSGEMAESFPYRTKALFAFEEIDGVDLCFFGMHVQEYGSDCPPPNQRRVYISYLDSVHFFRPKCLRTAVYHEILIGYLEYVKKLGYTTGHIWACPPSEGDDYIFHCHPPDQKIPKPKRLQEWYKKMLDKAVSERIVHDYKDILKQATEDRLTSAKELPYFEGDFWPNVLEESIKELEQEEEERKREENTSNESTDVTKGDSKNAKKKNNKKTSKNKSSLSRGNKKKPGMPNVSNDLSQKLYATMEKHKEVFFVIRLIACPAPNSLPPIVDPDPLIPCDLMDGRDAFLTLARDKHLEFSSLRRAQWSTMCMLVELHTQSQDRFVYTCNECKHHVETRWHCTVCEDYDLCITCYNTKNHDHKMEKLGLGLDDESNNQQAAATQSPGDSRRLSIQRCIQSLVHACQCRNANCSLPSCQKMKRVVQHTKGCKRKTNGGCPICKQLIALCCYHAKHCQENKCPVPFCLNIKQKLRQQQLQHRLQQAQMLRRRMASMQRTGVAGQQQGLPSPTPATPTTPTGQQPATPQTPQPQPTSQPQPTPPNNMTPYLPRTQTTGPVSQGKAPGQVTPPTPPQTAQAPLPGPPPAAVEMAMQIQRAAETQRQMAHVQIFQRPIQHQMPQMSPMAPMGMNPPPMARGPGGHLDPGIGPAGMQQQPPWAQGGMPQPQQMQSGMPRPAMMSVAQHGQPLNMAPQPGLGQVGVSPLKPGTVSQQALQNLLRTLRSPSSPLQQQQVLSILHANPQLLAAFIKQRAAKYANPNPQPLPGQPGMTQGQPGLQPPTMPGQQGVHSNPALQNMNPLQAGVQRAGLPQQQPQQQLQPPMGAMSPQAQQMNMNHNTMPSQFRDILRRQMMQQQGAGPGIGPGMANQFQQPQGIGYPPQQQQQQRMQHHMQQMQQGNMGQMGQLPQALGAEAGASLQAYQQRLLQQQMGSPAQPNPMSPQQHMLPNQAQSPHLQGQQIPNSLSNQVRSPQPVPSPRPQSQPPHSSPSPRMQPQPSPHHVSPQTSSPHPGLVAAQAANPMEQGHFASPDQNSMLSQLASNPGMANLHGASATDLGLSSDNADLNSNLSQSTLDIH
UniProt P70288: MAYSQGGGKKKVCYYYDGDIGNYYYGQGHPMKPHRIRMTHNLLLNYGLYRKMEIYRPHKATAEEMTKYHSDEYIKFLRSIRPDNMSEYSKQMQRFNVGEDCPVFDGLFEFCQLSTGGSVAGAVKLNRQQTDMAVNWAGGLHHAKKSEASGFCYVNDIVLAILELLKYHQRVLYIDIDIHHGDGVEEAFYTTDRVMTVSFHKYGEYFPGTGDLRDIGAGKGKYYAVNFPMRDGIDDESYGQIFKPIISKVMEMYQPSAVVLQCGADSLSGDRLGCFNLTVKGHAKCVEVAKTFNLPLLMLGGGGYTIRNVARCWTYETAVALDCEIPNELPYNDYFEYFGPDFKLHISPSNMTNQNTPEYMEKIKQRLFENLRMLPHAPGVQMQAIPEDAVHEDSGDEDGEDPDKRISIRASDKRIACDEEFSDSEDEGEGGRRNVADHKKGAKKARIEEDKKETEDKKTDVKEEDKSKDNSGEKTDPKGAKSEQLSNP

What was measured:
Experiment in all cases: co-IP; nuclear extract of S-phase NIH3T3 cells (16 h after re-addition of fully supplemented medium); antibody 2.5 ug/ml for 60 min at 4 C, Protein G Sepharose in IP-buffer (PBS, 1% Triton-X-100, 1 mM DTT, 0.2 mM PMSF, 1 mM NaF) for 2 h at 4 C, 4 washes; SDS-PAGE and immunoblotting
[1] = target: acetyltransferase p300 (mouse (endogenous in NIH3T3)) (UniProt B2RWS6)
[2] = target: deacetylase HDAC II (mouse (endogenous in NIH3T3)) (UniProt P70288)
[3] = target: HDAC I (mouse (endogenous in NIH3T3)), O09106; settings: remark: other sources report otherwise

B1: Rb2/p130 (protein, UniProt Q64700 1-1135)
chain: MASGGNQSPPPPPAAAASSEEEEEDGDAADRAQPAGSPSHQIQQRFEELCSRLNMDEAARAEAWSSYRSMSESYTLEGNDLHWLACALYVACRKSVPTVSKGTAEGNYVSLTRILRCSEQSLIEFFNKMKKWEDMANLPPHFRERTERLERNFTVSAVIFKKYEPIFQDIFKYPQEEQPRQQRGRKQRRQPCTTSEIFHFCWVLFIYAKGNFPMISDDLVNSYHLLLCALDLVYGNALQCSNRKELVNPNFKGLSEDCHPKDSKASSDPPCVIEKLCSLHDGLVLEAKGIKEHFWKPYIRKLFEKKLLKGKEENLTGFLEPGNFGESFKAVNKAYEEYVLAAGNLDERVFLGEDAEEEVGTLSRCLSAASGTESAERTQMRDILQQHLDKSKALRVCTPLTGVRYVQENSPCVTPVSTAAHSLSRLHTMLSGLRNAPSEKLERILRSCSRDPTQAIADRLKEMYEIYSQHFQPDENFSNCAKEIANKHFRFAEMLYYKVLESVIEQEQKRLGDMDLSGVLEHDAFHRSLLACCLEVVAFSHKPPGNFPFIAEIFDVPHYHFYKVIEVFIRAEDGLCREVVKHLNQIEEQILDHLAWKTKSPLWDRIRDNENRVPTCEEVMPPQNLERTDEIYIAGSPLTPRRVGEVRADAGGLGRSITSPTTLYDRYSSPTVSTTRRRLFENDSPSEGSTSGRIPPQPLVNAVPVQNVPGETVSVTPVPGQTLVTMATATVTANNGQTVTIPVQGIANENGGITFFPVQVNVGGQAQAVAGSIQPLSAQALAGSLSSQQVTGTTLQVPGPVAIQQISPGGQQQNPGQPLTSSSIRPRKTSSLALFFRKVYYLAGVRLRDLCIKLDISDELRKKIWTCFEFSIIQCTELMMDRHLDQLLMCAIYVMAKVTKEDRSFQNIMRCYRTQPQARSQVYRSVLIKGKRRNSGSSESRSHQNSPTELNTDRASRDSSPVMRSNSTLPVPQPSSAPPTPTRLTGASSDVEEEERGDLIQFYNNIYRKQIQAFAMKYSQANAQTDTPPLSPYPFVRTGSPRRVQLSQSHPIYISPHNNEAMPSPREKIFYYFSNSPSKRLREINSMIRTGETPTKKRGILLDDGSESPAKRICPENHSALLRRLQDVANDRGSQ
binding [1]: binds | binding [2]: binds

B2: Rb2/p130, Q64700 1-1135 (protein)
chain: MASGGNQSPPPPPAAAASSEEEEEDGDAADRAQPAGSPSHQIQQRFEELCSRLNMDEAARAEAWSSYRSMSESYTLEGNDLHWLACALYVACRKSVPTVSKGTAEGNYVSLTRILRCSEQSLIEFFNKMKKWEDMANLPPHFRERTERLERNFTVSAVIFKKYEPIFQDIFKYPQEEQPRQQRGRKQRRQPCTTSEIFHFCWVLFIYAKGNFPMISDDLVNSYHLLLCALDLVYGNALQCSNRKELVNPNFKGLSEDCHPKDSKASSDPPCVIEKLCSLHDGLVLEAKGIKEHFWKPYIRKLFEKKLLKGKEENLTGFLEPGNFGESFKAVNKAYEEYVLAAGNLDERVFLGEDAEEEVGTLSRCLSAASGTESAERTQMRDILQQHLDKSKALRVCTPLTGVRYVQENSPCVTPVSTAAHSLSRLHTMLSGLRNAPSEKLERILRSCSRDPTQAIADRLKEMYEIYSQHFQPDENFSNCAKEIANKHFRFAEMLYYKVLESVIEQEQKRLGDMDLSGVLEHDAFHRSLLACCLEVVAFSHKPPGNFPFIAEIFDVPHYHFYKVIEVFIRAEDGLCREVVKHLNQIEEQILDHLAWKTKSPLWDRIRDNENRVPTCEEVMPPQNLERTDEIYIAGSPLTPRRVGEVRADAGGLGRSITSPTTLYDRYSSPTVSTTRRRLFENDSPSEGSTSGRIPPQPLVNAVPVQNVPGETVSVTPVPGQTLVTMATATVTANNGQTVTIPVQGIANENGGITFFPVQVNVGGQAQAVAGSIQPLSAQALAGSLSSQQVTGTTLQVPGPVAIQQISPGGQQQNPGQPLTSSSIRPRKTSSLALFFRKVYYLAGVRLRDLCIKLDISDELRKKIWTCFEFSIIQCTELMMDRHLDQLLMCAIYVMAKVTKEDRSFQNIMRCYRTQPQARSQVYRSVLIKGKRRNSGSSESRSHQNSPTELNTDRASRDSSPVMRSNSTLPVPQPSSAPPTPTRLTGASSDVEEEERGDLIQFYNNIYRKQIQAFAMKYSQANAQTDTPPLSPYPFVRTGSPRRVQLSQSHPIYISPHNNEAMPSPREKIFYYFSNSPSKRLREINSMIRTGETPTKKRGILLDDGSESPAKRICPENHSALLRRLQDVANDRGSQ
binding [3]: no binding
